This note sets out measurements from article PMC2982801.

Sequences of proteins named here, by UniProt entry; tags and fusion partners are left off.
UniProt Q9NQB0: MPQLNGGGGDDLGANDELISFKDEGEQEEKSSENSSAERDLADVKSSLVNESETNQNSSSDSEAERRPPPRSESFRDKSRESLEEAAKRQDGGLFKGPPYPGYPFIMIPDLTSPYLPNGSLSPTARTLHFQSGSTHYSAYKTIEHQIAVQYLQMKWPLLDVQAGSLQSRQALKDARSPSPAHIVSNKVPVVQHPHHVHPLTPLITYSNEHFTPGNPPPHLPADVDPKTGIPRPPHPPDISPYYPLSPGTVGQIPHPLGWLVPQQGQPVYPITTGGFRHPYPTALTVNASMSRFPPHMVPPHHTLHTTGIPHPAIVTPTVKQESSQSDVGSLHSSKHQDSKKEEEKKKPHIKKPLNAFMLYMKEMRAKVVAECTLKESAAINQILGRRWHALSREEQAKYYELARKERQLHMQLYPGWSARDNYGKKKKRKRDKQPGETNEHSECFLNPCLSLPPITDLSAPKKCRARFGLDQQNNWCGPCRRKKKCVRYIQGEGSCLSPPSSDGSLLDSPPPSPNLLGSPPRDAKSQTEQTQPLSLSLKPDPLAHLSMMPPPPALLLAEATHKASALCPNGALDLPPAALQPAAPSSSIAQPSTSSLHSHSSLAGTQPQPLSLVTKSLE
UniProt Q8TEK3: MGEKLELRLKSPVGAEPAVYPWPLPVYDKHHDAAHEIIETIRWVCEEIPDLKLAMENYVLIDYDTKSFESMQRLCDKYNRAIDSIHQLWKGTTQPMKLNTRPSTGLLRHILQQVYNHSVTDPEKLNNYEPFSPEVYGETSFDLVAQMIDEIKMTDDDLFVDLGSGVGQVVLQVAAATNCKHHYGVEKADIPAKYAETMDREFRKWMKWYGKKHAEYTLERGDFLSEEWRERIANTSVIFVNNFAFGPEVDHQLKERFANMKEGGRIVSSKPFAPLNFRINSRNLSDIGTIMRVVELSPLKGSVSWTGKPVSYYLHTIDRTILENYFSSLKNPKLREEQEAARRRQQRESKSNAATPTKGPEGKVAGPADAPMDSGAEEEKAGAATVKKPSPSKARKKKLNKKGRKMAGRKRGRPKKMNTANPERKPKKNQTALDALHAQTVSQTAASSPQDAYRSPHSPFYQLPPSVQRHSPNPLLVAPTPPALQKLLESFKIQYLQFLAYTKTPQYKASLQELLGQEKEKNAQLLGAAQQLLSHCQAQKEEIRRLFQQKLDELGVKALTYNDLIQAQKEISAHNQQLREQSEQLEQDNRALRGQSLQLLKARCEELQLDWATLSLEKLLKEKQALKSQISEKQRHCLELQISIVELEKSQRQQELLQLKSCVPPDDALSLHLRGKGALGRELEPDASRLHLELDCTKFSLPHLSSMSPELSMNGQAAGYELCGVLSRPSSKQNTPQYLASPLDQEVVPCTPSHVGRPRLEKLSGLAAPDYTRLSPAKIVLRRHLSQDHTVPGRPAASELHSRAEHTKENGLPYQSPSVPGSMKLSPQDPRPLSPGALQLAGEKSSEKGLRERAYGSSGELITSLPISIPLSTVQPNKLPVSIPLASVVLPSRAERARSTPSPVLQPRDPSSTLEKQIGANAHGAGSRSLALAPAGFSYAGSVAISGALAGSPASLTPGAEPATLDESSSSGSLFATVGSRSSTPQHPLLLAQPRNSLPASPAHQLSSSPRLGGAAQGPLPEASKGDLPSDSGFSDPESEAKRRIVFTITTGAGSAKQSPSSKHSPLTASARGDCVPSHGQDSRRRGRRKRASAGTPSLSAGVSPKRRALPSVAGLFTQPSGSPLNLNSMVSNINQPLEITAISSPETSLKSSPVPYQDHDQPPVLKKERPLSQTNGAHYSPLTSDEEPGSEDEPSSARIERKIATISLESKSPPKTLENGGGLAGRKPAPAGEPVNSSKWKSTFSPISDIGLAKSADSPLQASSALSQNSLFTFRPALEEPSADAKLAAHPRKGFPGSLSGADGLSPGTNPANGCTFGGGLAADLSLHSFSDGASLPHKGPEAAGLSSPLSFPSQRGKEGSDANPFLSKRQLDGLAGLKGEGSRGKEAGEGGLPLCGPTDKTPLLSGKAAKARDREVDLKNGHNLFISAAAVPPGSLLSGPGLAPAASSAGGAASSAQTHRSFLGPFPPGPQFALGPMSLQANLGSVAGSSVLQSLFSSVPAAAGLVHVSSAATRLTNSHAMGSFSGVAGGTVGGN
UniProt Q924A0: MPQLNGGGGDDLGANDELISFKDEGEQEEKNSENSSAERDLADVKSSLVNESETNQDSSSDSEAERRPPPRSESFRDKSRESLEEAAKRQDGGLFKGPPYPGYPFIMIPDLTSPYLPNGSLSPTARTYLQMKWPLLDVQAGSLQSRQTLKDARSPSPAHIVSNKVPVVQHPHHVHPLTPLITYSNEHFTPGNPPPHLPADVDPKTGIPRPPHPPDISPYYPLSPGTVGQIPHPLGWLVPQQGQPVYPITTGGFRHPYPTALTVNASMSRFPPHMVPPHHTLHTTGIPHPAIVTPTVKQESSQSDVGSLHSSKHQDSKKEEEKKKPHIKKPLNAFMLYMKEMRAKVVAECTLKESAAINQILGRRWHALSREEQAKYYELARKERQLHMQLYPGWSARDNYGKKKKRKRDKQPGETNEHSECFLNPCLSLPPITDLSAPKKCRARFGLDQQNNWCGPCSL
UniProt Q02248: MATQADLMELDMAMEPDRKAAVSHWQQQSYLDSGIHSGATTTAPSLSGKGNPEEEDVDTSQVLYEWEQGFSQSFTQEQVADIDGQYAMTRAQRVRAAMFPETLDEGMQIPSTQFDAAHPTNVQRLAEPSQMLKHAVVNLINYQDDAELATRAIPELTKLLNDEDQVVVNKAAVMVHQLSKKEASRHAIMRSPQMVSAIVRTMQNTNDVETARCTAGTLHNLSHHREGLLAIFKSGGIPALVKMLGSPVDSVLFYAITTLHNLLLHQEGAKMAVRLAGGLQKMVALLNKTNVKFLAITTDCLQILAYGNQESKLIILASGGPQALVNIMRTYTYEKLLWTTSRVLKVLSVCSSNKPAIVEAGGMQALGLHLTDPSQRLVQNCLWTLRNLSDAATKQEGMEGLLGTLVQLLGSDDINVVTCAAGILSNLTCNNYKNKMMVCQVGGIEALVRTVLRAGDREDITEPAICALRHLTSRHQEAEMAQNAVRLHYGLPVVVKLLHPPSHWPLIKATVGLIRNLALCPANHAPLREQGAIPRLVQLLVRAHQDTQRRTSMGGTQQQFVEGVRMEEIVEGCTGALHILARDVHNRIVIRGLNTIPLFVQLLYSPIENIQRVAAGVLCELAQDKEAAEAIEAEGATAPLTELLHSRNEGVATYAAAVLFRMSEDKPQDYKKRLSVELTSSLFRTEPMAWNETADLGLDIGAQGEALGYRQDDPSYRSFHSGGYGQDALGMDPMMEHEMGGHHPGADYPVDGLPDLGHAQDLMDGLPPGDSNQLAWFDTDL
UniProt P35222: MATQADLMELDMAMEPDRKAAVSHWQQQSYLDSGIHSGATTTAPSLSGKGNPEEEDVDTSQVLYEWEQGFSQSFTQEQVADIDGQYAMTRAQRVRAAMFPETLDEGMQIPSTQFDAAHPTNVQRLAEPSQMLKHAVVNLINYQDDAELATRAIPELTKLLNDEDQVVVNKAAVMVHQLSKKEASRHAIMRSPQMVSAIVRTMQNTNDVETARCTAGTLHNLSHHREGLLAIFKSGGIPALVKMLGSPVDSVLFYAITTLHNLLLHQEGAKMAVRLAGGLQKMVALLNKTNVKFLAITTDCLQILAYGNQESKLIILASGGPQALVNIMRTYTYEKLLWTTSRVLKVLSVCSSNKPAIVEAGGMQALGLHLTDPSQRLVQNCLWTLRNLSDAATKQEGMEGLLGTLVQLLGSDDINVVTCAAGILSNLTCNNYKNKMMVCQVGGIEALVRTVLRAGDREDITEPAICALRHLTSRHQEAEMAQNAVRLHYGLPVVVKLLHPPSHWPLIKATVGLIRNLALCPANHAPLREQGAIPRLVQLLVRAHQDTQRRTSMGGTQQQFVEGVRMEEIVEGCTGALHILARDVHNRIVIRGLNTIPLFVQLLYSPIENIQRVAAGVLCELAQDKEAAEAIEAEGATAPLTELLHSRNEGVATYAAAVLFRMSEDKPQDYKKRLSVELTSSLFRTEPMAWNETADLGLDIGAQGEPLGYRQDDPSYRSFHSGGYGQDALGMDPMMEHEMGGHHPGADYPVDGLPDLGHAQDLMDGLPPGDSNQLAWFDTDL

Assay [1] deals with T1, Mllt10/Af10 (mouse (endogenous in small intestinal crypts)) (UniProt O54826).
T1 sequence: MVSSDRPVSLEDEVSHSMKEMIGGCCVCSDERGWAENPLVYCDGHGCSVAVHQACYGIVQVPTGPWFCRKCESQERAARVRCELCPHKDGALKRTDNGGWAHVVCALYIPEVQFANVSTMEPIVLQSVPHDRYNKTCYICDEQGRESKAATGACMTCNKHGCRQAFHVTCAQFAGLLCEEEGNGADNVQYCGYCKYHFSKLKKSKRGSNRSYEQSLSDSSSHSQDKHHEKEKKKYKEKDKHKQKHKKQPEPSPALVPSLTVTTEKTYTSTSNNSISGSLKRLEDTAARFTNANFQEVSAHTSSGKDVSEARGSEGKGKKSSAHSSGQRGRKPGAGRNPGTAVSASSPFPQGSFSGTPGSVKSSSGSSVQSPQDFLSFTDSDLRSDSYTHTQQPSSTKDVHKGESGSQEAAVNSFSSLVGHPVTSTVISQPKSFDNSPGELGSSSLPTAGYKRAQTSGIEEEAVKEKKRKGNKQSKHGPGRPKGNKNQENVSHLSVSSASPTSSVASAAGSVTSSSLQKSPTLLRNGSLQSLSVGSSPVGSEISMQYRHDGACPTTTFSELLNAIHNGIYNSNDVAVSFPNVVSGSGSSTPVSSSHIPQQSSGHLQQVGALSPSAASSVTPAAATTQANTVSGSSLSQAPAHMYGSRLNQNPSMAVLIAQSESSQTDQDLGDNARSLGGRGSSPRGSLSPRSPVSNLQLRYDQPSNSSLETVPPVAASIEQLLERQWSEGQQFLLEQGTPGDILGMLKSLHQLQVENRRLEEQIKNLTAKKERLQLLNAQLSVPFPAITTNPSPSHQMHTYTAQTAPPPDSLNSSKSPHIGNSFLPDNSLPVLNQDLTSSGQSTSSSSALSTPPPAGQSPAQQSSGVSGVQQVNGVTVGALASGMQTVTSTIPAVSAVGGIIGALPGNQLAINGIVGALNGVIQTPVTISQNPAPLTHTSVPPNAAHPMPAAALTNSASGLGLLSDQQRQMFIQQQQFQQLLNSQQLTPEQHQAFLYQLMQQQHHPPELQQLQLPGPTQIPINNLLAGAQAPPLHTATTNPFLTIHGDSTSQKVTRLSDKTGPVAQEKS
Description: co-IP; endogenous complexes from mouse crypt lysates in PLB buffer (1% TritonX-100, 2 mM EDTA, 1 mM DTT in PBS), overnight at 4°C with anti-TCF4, anti β-catenin or anti-Mllt10/Af10 and protein G-Agarose; Western blot.

The target in assay [2] is TCF4 (human (endogenous in Ls174T)) (UniProt Q9NQB0). Description: co-IP; endogenous complexes from Ls174T CRC lysates in PLB buffer (1% TritonX-100, 2 mM EDTA, 1 mM DTT in PBS), overnight at 4°C with anti-TCF4, anti β-catenin, anti-Mllt10/Af10 or anti-DOT1L and protein G-Agarose; Western blot.
The target in assay [3] is DOT1L (human (endogenous in Ls174T)) (UniProt Q8TEK3). Described as above.
Assay [4] deals with Tcf4 (mouse (endogenous in small intestinal crypts)) (UniProt Q924A0). Put plainly: co-IP; endogenous complexes from mouse crypt lysates in PLB buffer (1% TritonX-100, 2 mM EDTA, 1 mM DTT in PBS), overnight at 4°C with anti-TCF4, anti β-catenin or anti-Mllt10/Af10 and protein G-Agarose; Western blot.
Assay [5] addresses β-catenin (mouse (endogenous in small intestinal crypts)) (UniProt Q02248). The assay is described as above.
The target in assay [6] is Recombinant GST-fused β-catenin (UniProt P35222). Put plainly: pull-down; GST pull-down: recombinant GST fusion proteins as bait, in vitro transcribed and translated S35 labeled proteins as prey; only the target purified.

Results are given in words; binding and its absence hold for the method and conditions named. Binding seen in cells or lysates may run through a third protein. Some binding calls cover weakened binding; strength is not graded here.

Turning to Tcf4 (from UniProt Q924A0 1-459), the binding result in assay [1] is “binds”. As to “DOT1L (from UniProt Q8TEK3 1-1537) (enzyme)”, in assay [2], the binding result is “binds”. On to TCF4 (from UniProt Q9NQB0 1-619), for which, in assay [3], the binding result is reported as “binds”.

In the case of β-catenin (from UniProt Q02248 1-781), the binding result in assay [1] was “binds”.

B1: Mllt10/Af10 (protein, UniProt O54826 1-1068)
chain: MVSSDRPVSLEDEVSHSMKEMIGGCCVCSDERGWAENPLVYCDGHGCSVAVHQACYGIVQVPTGPWFCRKCESQERAARVRCELCPHKDGALKRTDNGGWAHVVCALYIPEVQFANVSTMEPIVLQSVPHDRYNKTCYICDEQGRESKAATGACMTCNKHGCRQAFHVTCAQFAGLLCEEEGNGADNVQYCGYCKYHFSKLKKSKRGSNRSYEQSLSDSSSHSQDKHHEKEKKKYKEKDKHKQKHKKQPEPSPALVPSLTVTTEKTYTSTSNNSISGSLKRLEDTAARFTNANFQEVSAHTSSGKDVSEARGSEGKGKKSSAHSSGQRGRKPGAGRNPGTAVSASSPFPQGSFSGTPGSVKSSSGSSVQSPQDFLSFTDSDLRSDSYTHTQQPSSTKDVHKGESGSQEAAVNSFSSLVGHPVTSTVISQPKSFDNSPGELGSSSLPTAGYKRAQTSGIEEEAVKEKKRKGNKQSKHGPGRPKGNKNQENVSHLSVSSASPTSSVASAAGSVTSSSLQKSPTLLRNGSLQSLSVGSSPVGSEISMQYRHDGACPTTTFSELLNAIHNGIYNSNDVAVSFPNVVSGSGSSTPVSSSHIPQQSSGHLQQVGALSPSAASSVTPAAATTQANTVSGSSLSQAPAHMYGSRLNQNPSMAVLIAQSESSQTDQDLGDNARSLGGRGSSPRGSLSPRSPVSNLQLRYDQPSNSSLETVPPVAASIEQLLERQWSEGQQFLLEQGTPGDILGMLKSLHQLQVENRRLEEQIKNLTAKKERLQLLNAQLSVPFPAITTNPSPSHQMHTYTAQTAPPPDSLNSSKSPHIGNSFLPDNSLPVLNQDLTSSGQSTSSSSALSTPPPAGQSPAQQSSGVSGVQQVNGVTVGALASGMQTVTSTIPAVSAVGGIIGALPGNQLAINGIVGALNGVIQTPVTISQNPAPLTHTSVPPNAAHPMPAAALTNSASGLGLLSDQQRQMFIQQQQFQQLLNSQQLTPEQHQAFLYQLMQQQHHPPELQQLQLPGPTQIPINNLLAGAQAPPLHTATTNPFLTIHGDSTSQKVTRLSDKTGPVAQEKS
As for B1, the binding result in assay [4] and in assay [5] was “binds” throughout.

B2: MLLT10/AF10 (protein, UniProt P55197 1-1068)
chain: MVSSDRPVSLEDEVSHSMKEMIGGCCVCSDERGWAENPLVYCDGHGCSVAVHQACYGIVQVPTGPWFCRKCESQERAARVRCELCPHKDGALKRTDNGGWAHVVCALYIPEVQFANVSTMEPIVLQSVPHDRYNKTCYICDEQGRESKAATGACMTCNKHGCRQAFHVTCAQFAGLLCEEEGNGADNVQYCGYCKYHFSKLKKSKRGSNRSYDQSLSDSSSHSQDKHHEKEKKKYKEKDKHKQKHKKQPEPSPALVPSLTVTTEKTYTSTSNNSISGSLKRLEDTTARFTNANFQEVSAHTSSGKDVSETRGSEGKGKKSSAHSSGQRGRKPGGGRNPGTTVSAASPFPQGSFSGTPGSVKSSSGSSVQSPQDFLSFTDSDLRNDSYSHSQQSSATKDVHKGESGSQEGGVNSFSTLIGLPSTSAVTSQPKSFENSPGDLGNSSLPTAGYKRAQTSGIEEETVKEKKRKGNKQSKHGPGRPKGNKNQENVSHLSVSSASPTSSVASAAGSITSSSLQKSPTLLRNGSLQSLSVGSSPVGSEISMQYRHDGACPTTTFSELLNAIHNGIYNSNDVAVSFPNVVSGSGSSTPVSSSHLPQQSSGHLQQVGALSPSAVSSAAPAVATTQANTLSGSSLSQAPSHMYGNRSNSSMAALIAQSENNQTDQDLGDNSRNLVGRGSSPRGSLSPRSPVSSLQIRYDQPGNSSLENLPPVAASIEQLLERQWSEGQQFLLEQGTPSDILGMLKSLHQLQVENRRLEEQIKNLTAKKERLQLLNAQLSVPFPTITANPSPSHQIHTFSAQTAPTTDSLNSSKSPHIGNSFLPDNSLPVLNQDLTSSGQSTSSSSALSTPPPAGQSPAQQGSGVSGVQQVNGVTVGALASGMQPVTSTIPAVSAVGGIIGALPGNQLAINGIVGALNGVMQTPVTMSQNPTPLTHTTVPPNATHPMPATLTNSASGLGLLSDQQRQILIHQQQFQQLLNSQQLTPEQHQAFLYQLMQHHHQQHHQPELQQLQIPGPTQIPINNLLAGTQAPPLHTATTNPFLTIHGDNASQKVARLSDKTGPVAQEKS
B2: the binding entry in assay [3] was “binds”.

B3: in vitro translated S35 labeled MLLT10 (protein, UniProt P55197 1-1068)
chain: MVSSDRPVSLEDEVSHSMKEMIGGCCVCSDERGWAENPLVYCDGHGCSVAVHQACYGIVQVPTGPWFCRKCESQERAARVRCELCPHKDGALKRTDNGGWAHVVCALYIPEVQFANVSTMEPIVLQSVPHDRYNKTCYICDEQGRESKAATGACMTCNKHGCRQAFHVTCAQFAGLLCEEEGNGADNVQYCGYCKYHFSKLKKSKRGSNRSYDQSLSDSSSHSQDKHHEKEKKKYKEKDKHKQKHKKQPEPSPALVPSLTVTTEKTYTSTSNNSISGSLKRLEDTTARFTNANFQEVSAHTSSGKDVSETRGSEGKGKKSSAHSSGQRGRKPGGGRNPGTTVSAASPFPQGSFSGTPGSVKSSSGSSVQSPQDFLSFTDSDLRNDSYSHSQQSSATKDVHKGESGSQEGGVNSFSTLIGLPSTSAVTSQPKSFENSPGDLGNSSLPTAGYKRAQTSGIEEETVKEKKRKGNKQSKHGPGRPKGNKNQENVSHLSVSSASPTSSVASAAGSITSSSLQKSPTLLRNGSLQSLSVGSSPVGSEISMQYRHDGACPTTTFSELLNAIHNGIYNSNDVAVSFPNVVSGSGSSTPVSSSHLPQQSSGHLQQVGALSPSAVSSAAPAVATTQANTLSGSSLSQAPSHMYGNRSNSSMAALIAQSENNQTDQDLGDNSRNLVGRGSSPRGSLSPRSPVSSLQIRYDQPGNSSLENLPPVAASIEQLLERQWSEGQQFLLEQGTPSDILGMLKSLHQLQVENRRLEEQIKNLTAKKERLQLLNAQLSVPFPTITANPSPSHQIHTFSAQTAPTTDSLNSSKSPHIGNSFLPDNSLPVLNQDLTSSGQSTSSSSALSTPPPAGQSPAQQGSGVSGVQQVNGVTVGALASGMQPVTSTIPAVSAVGGIIGALPGNQLAINGIVGALNGVMQTPVTMSQNPTPLTHTTVPPNATHPMPATLTNSASGLGLLSDQQRQILIHQQQFQQLLNSQQLTPEQHQAFLYQLMQHHHQQHHQPELQQLQIPGPTQIPINNLLAGTQAPPLHTATTNPFLTIHGDNASQKVARLSDKTGPVAQEKS
modifications: S35 labeled
As for B3, in assay [6], the binding entry is given as “binds”.
